The results in this text go back to US20240409637A1.

Protein sequences, listed by entry. Tags and fused reporters are not part of them. Lines headed by an entry give the natural chain unless they say otherwise; changes in a name come on top.
UniProt P01732: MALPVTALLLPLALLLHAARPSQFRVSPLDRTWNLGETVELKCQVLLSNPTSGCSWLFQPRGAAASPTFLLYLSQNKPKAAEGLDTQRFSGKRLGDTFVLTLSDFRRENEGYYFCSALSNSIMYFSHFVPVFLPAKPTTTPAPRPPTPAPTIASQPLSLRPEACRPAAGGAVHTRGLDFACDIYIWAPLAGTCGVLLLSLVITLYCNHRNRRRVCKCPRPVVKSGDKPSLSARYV

No constants are given. Whether binding was seen depends on the method and setting. Some results given as binding are weak or reduced against the parent protein; the word gives no strength.

The assay has as its target human CD8α subunit (human) (UniProt P01732). As to the kind of experiment: Biacore and ELISA. For orientation: In SPR one partner is held on a chip, and binding of the other changes the refractive index at the surface.

B1: mAb1 (anti-CD8 monoclonal antibody) (antibody, V domains shown)
VH: QVQLVESGGGVDQPGRSLRLSCAASGFIFSNYGIHWVRQAPGKGLEWVAVIWYDGSNKYFEDSVKGRFNISRDNSKNIVYLQMNSLRAEDTAVYFCARSYDMLTGSGDYYGLDVWGQGTTVTVSS
VL: DIQMTQSPSSLSASVGDRVTITCRASQDITNYLAWFQQKPGKAPKSLIYGASSLQSGVPSKFSGSGSGTDFTLTISSLQPEDFATYYCQQYNNYPLTFGGGTKVEIK
Take B1: the binding entry is recorded as “binds”.
